Data published in PubChem BioAssay AID1487 (National Center for Advancing Translational Sciences (NCATS), 2009).
The other results are listed elsewhere or left out. Shown are side measurements of this screen, not its main read-out; they come without a call. Compounds called inactive in the main read-out are mostly missing here. Words in brackets tell the shape of the fitted curve; partial curves, single points and poor fits give uncertain potencies.

Experiment: qHTS Assay for Modulators of Lamin A Splicing
Details: HeLa LMNA splicing GFP/RFP minigene ratio, 48 h
Outline: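 S3 HeLa cells stably expressing lamin A-EGFP splicing minigene plus DsRed2, 600 cells/well, 48 h compound exposure at 37C. Laser-scanning cytometry; analysed as GFP (500-530 nm)/RFP (575-640 nm) total intensity ratio; 0.5% DMSO vehicle.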

[1] = measured here: GFP splicing reporter channel
[2] = measured here: RFP viability control channel

C/C(=N\NC(=O)C(C)Oc1ccc([N+](=O)[O-])cc1)c1ccccn1 (configuration not stated)
AC50 [1]: 3.16 µM [falling, full curve]
AC50 [2]: 6.31 µM [falling, full curve]

CC(O)COc1ccc(/C(=N/O)c2ccccc2)cc1 (configuration not stated)
AC50 [1]: 12.6 µM [rising, single point]

COc1ccc(-n2nnnc2SCC(=O)c2cccc(OC)c2)cc1
AC50 [2]: 31.6 µM [rising, single point]

COc1cccc(CSc2nc3ccccc3[nH]2)c1
AC50 [2]: 10 µM [rising, partial curve]

O=C(CN1CCOCC1)Nc1ccc(N2CCN(c3ccccc3)CC2)c(F)c1
AC50 [1]: 8.91 µM [falling, partial curve, poor fit]

O=C(O)C1CC=CCC1C(=O)Nc1ccc(S(=O)(=O)N2CCCc3ccccc32)cc1 (configuration not stated)
AC50 [2]: 7.08 µM [rising, full curve]

Cn1cc(CCNC(=O)CC2C(=O)NCCN2Cc2cccc(Oc3ccccc3)c2)cn1 (configuration not stated)
AC50 [1]: 0.00891 µM [falling, full curve, poor fit]

O=C(Nc1nc(=O)[nH]s1)c1ccccc1
AC50 [2]: 0.0282 µM [falling, full curve, poor fit]

Cn1c(=S)n(C)c2ccccc21
AC50 [1]: 0.0224 µM [rising, full curve, poor fit]

O=C(c1cc(COc2ccc3ncccc3c2)on1)N1CCC(O)CC1
AC50 [1]: 17.8 µM [falling, partial curve]
AC50 [2]: 20 µM [falling, partial curve, poor fit]

CNC(=O)c1ccsc1NC(=O)c1ccc(S(=O)(=O)N2CCc3ccccc32)cc1
AC50 [1]: 35.5 µM [rising, single point]
AC50 [2]: 35.5 µM [rising, single point]

COc1ccc(C(=O)N2CCC(c3nc4ccccc4o3)CC2)cc1
AC50 [1]: 0.0562 µM [falling, full curve, poor fit]
AC50 [2]: 0.01 µM [falling, full curve, poor fit]

Cc1cccc2sc(NC(=O)CSCc3ccccc3)nc12
AC50 [1]: 14.1 µM [rising, single point]
AC50 [2]: 35.5 µM [rising, single point]

CSc1nc(-c2ccc(C)cc2)nc(C(Cl)Cl)n1
AC50 [1]: 4.47 µM [falling, partial curve]
AC50 [2]: 5.62 µM [falling, single point]

COc1ccc(S(=O)(=O)c2c(Nc3ccc(F)cc3)sc(C(=O)c3ccc(C)cc3C)c2N)cc1
AC50 [1]: 3.98 µM [rising, partial curve]
AC50 [2]: 5.01 µM [rising, single point]

COc1ccc(Cn2nnnc2C(CC(C)C)N2CCN(c3ccccc3)CC2)cc1 (configuration not stated)
AC50 [2]: 15.8 µM [rising, single point]

O=C(c1nnsc1S(=O)(=O)c1ccc(Cl)cc1)N1CCOCC1
AC50 [2]: 0.0224 µM [rising, full curve, poor fit]

O=C(Nc1ccc(O)cc1)c1ccccc1O
AC50 [2]: 14.1 µM [rising, partial curve]

CCOc1ccc(C(CCc2ccccc2)NC(=O)c2ccc(OC)c(OC)c2)cc1OCC (configuration not stated)
AC50 [1]: 22.4 µM [rising, partial curve, poor fit]
AC50 [2]: 31.6 µM [rising, single point]

COc1ccccc1/C=C/C(=O)NC(=S)NCC1CCCO1 (configuration not stated)
AC50 [2]: 12.6 µM [rising, partial curve, poor fit]

Cn1c(C(=O)NCCCN2CCN(c3ccccc3F)CC2)cc2c(=O)n(C)c3ccccc3c21
AC50 [2]: 35.5 µM [rising, single point]

CCOc1ccc2nc(N3CCC(C(=O)N4CCN(c5ccccn5)CC4)CC3)sc2c1
AC50 [1]: 12.6 µM [rising, partial curve]
AC50 [2]: 11.2 µM [rising, partial curve]

CN(C)c1ccc(/C=C/C(=O)c2cccc(Br)c2)cc1
AC50 [1]: 28.2 µM [falling, single point]
AC50 [2]: 35.5 µM [falling, single point]

Cc1[nH]c2ccc(F)cc2c(=O)c1SC(F)(F)C(F)F
AC50 [2]: 31.6 µM [rising, single point]

O=c1cc(Nc2ccc3c(c2)OCCO3)[nH]c(=O)n1C1CCCCC1
AC50 [2]: 11.2 µM [rising, partial curve]

O=C(NCc1ccccn1)c1ccccc1-c1ccccc1
AC50 [1]: 17.8 µM [rising, partial curve]
AC50 [2]: 0.00562 µM [rising, full curve, poor fit]

COc1coc(C(O)C[N+](=O)[O-])cc1=O (configuration not stated)
AC50 [1]: 1.26 µM [falling, partial curve, poor fit]

CCOC(=O)c1c(NC(=O)CCN2C(=O)c3cccc([N+](=O)[O-])c3C2=O)sc(C(=O)OC(C)C)c1C
AC50 [1]: 2.51 µM [falling, full curve, poor fit]

CCOC(=O)C1(Cc2cccc(F)c2)CCN(Cc2nc(CC)[nH]c2C)CC1
AC50 [1]: 6.31 µM [falling, partial curve, poor fit]
AC50 [2]: 0.794 µM [falling, full curve, poor fit]

CC(C)C(=O)N1CCN(c2ccc([N+](=O)[O-])cc2Cl)CC1
AC50 [1]: 14.1 µM [rising, single point]
AC50 [2]: 15.8 µM [rising, single point]

c1ccc(Cn2nc(-c3ccccc3)nc2-c2ccccc2)cc1
AC50 [2]: 14.1 µM [rising, partial curve]

Cn1cnnc1SCC(=O)Nc1cc(C(=O)O)cc(C(=O)O)c1
AC50 [1]: 0.178 µM [falling, full curve, poor fit]

O=C(c1ccccc1)N1CCN(c2ncnc3sc4c(c23)CCC4)CC1
AC50 [2]: 12.6 µM [rising, partial curve]

O=C(NCCCN1CCCC1)c1cc2c(Cl)nc3ccccc3c2s1
AC50 [1]: 7.94 µM [falling, partial curve, poor fit]

CC1CCCN(c2nc(NCc3ccco3)nc(N)c2[N+](=O)[O-])C1 (configuration not stated)
AC50 [2]: 8.91 µM [rising, partial curve]

COc1ccc(-c2ccc(CNc3ccc4[nH]c(=O)[nH]c4c3)o2)cc1Cl
AC50 [2]: 25.1 µM [falling, single point]

NS(=O)(=O)c1ccc(NC(=O)COC(=O)C2(c3ccc(F)cc3)CCCC2)cc1
AC50 [2]: 22.4 µM [rising, single point]

Cc1cc(C)nc(-n2nc(C)cc2Nc2ccccc2)n1
AC50 [1]: 10 µM [rising, single point]
AC50 [2]: 11.2 µM [rising, partial curve]

O=C(NCc1ccco1)C(=O)NCC1OCCCN1S(=O)(=O)c1ccc(Cl)cc1 (configuration not stated)
AC50 [2]: 7.08 µM [rising, full curve, poor fit]

Cn1c(CCN2CCCCC2)nc2cc(NS(=O)(=O)c3ccc(F)cc3)ccc21
AC50 [2]: 14.1 µM [rising, partial curve]

COC(=O)c1ccc(COc2ccccc2/C=N/NS(=O)(=O)c2ccccc2)cc1
AC50 [1]: 14.1 µM [rising, partial curve, poor fit]
AC50 [2]: 14.1 µM [rising, partial curve]

CC(C)OC(=O)c1ccc(Cn2nnc3ccccc3c2=O)cc1
AC50 [2]: 15.8 µM [rising, single point]

COc1ccc(S(=O)(=O)c2c(Nc3ccc(C)cc3)sc(C(=O)c3ccc(C)cc3)c2N)cc1
AC50 [1]: 15.8 µM [rising, single point]
AC50 [2]: 11.2 µM [rising, partial curve]

CCOc1ccc2nc(-c3ccccc3)[nH]c2c1
AC50 [2]: 1 µM [rising, partial curve]

OCCN1CCN(c2nc(-c3ccccc3)nc3c2oc2ccccc23)CC1
AC50 [1]: 31.6 µM [rising, single point]
AC50 [2]: 31.6 µM [rising, single point]

Cc1cccc(C(=O)NCC(c2ccc3c(c2)OCO3)N2CCN(c3ccccc3F)CC2)c1 (configuration not stated)
AC50 [1]: 35.5 µM [falling, partial curve, poor fit]
AC50 [2]: 0.0891 µM [falling, full curve, poor fit]

CC/C(=N\NC(=O)c1ccc(N(C)C)cc1)c1ccccc1
AC50 [2]: 15.8 µM [rising, single point]

C=CCSc1nc(N)c(C#N)c(-c2ccccc2)c1C#N
AC50 [1]: 0.112 µM [rising, full curve, poor fit]

NC(=O)CCn1ccc2ccccc21
AC50 [1]: 1.12 µM [rising, partial curve, poor fit]

CCOc1ccc(C(=O)NCC(c2cccs2)N(C)C)cc1 (configuration not stated)
AC50 [1]: 0.0251 µM [falling, full curve, poor fit]

O=C(O)CCN(Cc1ccccc1)S(=O)(=O)c1ccc(Cl)cc1F
AC50 [2]: 0.00562 µM [falling, full curve]

CC(C)(C)n1nnnc1SCC(=O)Nc1nn(-c2ccccc2)nc1C(N)=O
AC50 [2]: 0.00316 µM [falling, full curve, poor fit]

Clc1ncc(CN2CCN(c3ccccc3)CC2)s1
AC50 [1]: 0.01 µM [falling, full curve]
AC50 [2]: 0.00355 µM [falling, full curve, poor fit]

C=CCN(C(=O)c1csnn1)C(C(=O)NC(C)(C)C)c1ccncc1 (configuration not stated)
AC50 [1]: 0.00316 µM [rising, full curve, poor fit]
AC50 [2]: 0.00355 µM [rising, full curve, poor fit]

CC(=O)c1c(C)n(CC(=O)NCc2ccc3c(c2)OCO3)c2ccccc12
AC50 [1]: 4.47 µM [rising, single point]
AC50 [2]: 3.55 µM [rising, full curve]

Cn1ccc(NC(=O)Nc2cccc(C(F)(F)F)c2)n1
AC50 [1]: 0.562 µM [rising, full curve, poor fit]
